{"source": "PubChem BioAssay AID1259261 (Sanger Institute, 2017)", "assay": "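siRNA screen across the kinome for kinases that are essential and partners synergising with drugs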 (primary screen)", "cells": "HCC2998 human colorectal cancer cells", "reagents": "siRNA pool against human genes", "treatment": "anchor drugs BYL719 1 µM, cetuximab 5 µg/ml or trametinib 10 nM, each compared with DMSO vehicle", "detection": "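Cell viability relative to non-targeting siRNA, averaged over replicates, with robust z-score for siRNA alone and synergy scores with each anchor drug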", "scale": "viability z-score, knock-down alone: higher = more viable cells than controls; viability fraction, knock-down alone: higher = more viable cells", "rule for the call": "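Essential when the siRNA-alone viability robust z-score is below -3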", "calls": "active = essential; inactive = no change", "note": "In all, the deposit lists 794 reagents; shown is a random part of them. Of all reagents, 10 (1.3%) are marked active. 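Calls reflect knock-down alone without drug; synergy scores with BYL719, cetuximab or trametinib do not affect calls.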 Viability is capped at 1. Not all columns of the deposit are shown. Not stated in the record: the amount of reagent, the time to read-out."}
{"Gene": "ETNK2 (ethanolamine kinase 2)", "viability z-score, knock-down alone": 0.181, "viability fraction, knock-down alone": 0.872, "call": "inactive"}
{"Gene": "PSKH1 (protein serine kinase H1)", "viability z-score, knock-down alone": 1.01, "viability fraction, knock-down alone": 0.975, "call": "inactive"}
{"Gene": "ACVR2B (activin A receptor type 2B)", "viability z-score, knock-down alone": 0.803, "viability fraction, knock-down alone": 0.95, "call": "inactive"}
{"Gene": "PPP2R1A (protein phosphatase 2 scaffold subunit Aalpha)", "viability z-score, knock-down alone": -0.0858, "viability fraction, knock-down alone": 0.838, "call": "inactive"}
{"Gene": "PAK1 (p21 (RAC1) activated kinase 1)", "viability z-score, knock-down alone": -1.02, "viability fraction, knock-down alone": 0.721, "call": "inactive"}
{"Gene": "CHEK1 (checkpoint kinase 1)", "viability z-score, knock-down alone": -2.65, "viability fraction, knock-down alone": 0.517, "call": "inactive"}
{"Gene": "HK3 (hexokinase 3)", "viability z-score, knock-down alone": 1.21, "viability fraction, knock-down alone": 1, "call": "inactive"}
{"Gene": "PTGS1 (prostaglandin-endoperoxide synthase 1)", "viability z-score, knock-down alone": -0.00608, "viability fraction, knock-down alone": 0.848, "call": "inactive"}
{"Gene": "NUCKS1", "viability z-score, knock-down alone": 0.889, "viability fraction, knock-down alone": 0.96, "call": "inactive"}
{"Gene": "KDR (kinase insert domain receptor)", "viability z-score, knock-down alone": 1.21, "viability fraction, knock-down alone": 1, "call": "inactive"}
{"Gene": "CLK4 (CDC like kinase 4)", "viability z-score, knock-down alone": 0.697, "viability fraction, knock-down alone": 0.936, "call": "inactive"}
{"Gene": "RELA (RELA proto-oncogene, NF-kB subunit)", "viability z-score, knock-down alone": -0.236, "viability fraction, knock-down alone": 0.819, "call": "inactive"}
{"Gene": "HSPB8 (heat shock protein family B (small) member 8)", "viability z-score, knock-down alone": 0.931, "viability fraction, knock-down alone": 0.966, "call": "inactive"}
{"Gene": "COQ8B (coenzyme Q8B)", "viability z-score, knock-down alone": -0.687, "viability fraction, knock-down alone": 0.763, "call": "inactive"}
{"Gene": "MPP1 (MAGUK p55 scaffold protein 1)", "viability z-score, knock-down alone": 0.609, "viability fraction, knock-down alone": 0.925, "call": "inactive"}
{"Gene": "STK24 (serine/threonine kinase 24)", "viability z-score, knock-down alone": 0.395, "viability fraction, knock-down alone": 0.898, "call": "inactive"}
{"Gene": "GUCY2EP (guanylate cyclase 2E, pseudogene)", "viability z-score, knock-down alone": -1.12, "viability fraction, knock-down alone": 0.708, "call": "inactive"}
{"Gene": "IKBKB (inhibitor of nuclear factor kappa B kinase subunit beta)", "viability z-score, knock-down alone": 0.809, "viability fraction, knock-down alone": 0.95, "call": "inactive"}
{"Gene": "BPTF (bromodomain PHD finger transcription factor)", "viability z-score, knock-down alone": -0.982, "viability fraction, knock-down alone": 0.726, "call": "inactive"}

Reprinted from the entries so far for reference:
{"Gene": "CLK4 (CDC like kinase 4)", "viability z-score, knock-down alone": 0.697, "viability fraction, knock-down alone": 0.936, "call": "inactive"}
{"Gene": "RELA (RELA proto-oncogene, NF-kB subunit)", "viability z-score, knock-down alone": -0.236, "viability fraction, knock-down alone": 0.819, "call": "inactive"}
